Measured values reported in patent publication US20230125667A1, “NOVEL TDZD ANALOGS AS AGENTS THAT DELAY, PREVENT, OR REVERSE AGE-ASSOCIATED DISEASES AND AS ANTI-CANCER AND ANTILEUKEMIC AGENTS” (United States Government as represented by the Department …, priority 2020, published 2023).
Some of these results come from one statement about several compounds together. For part of these data: At least one compound was matched to its structure with a doubt left.

Experiments:
[1] = system: human leukemia cell lines; experiment: NCI-60 growth inhibition, leukemia cell lines
[2] = system: wild-type nematodes; experiment: Lifespan of C. elegans; format: in vivo; details: P<0.001 (FIG. 8)
Procedure: It was previously shown that several interventions that improve age-associated phenotypes also modulate lifespan (Ayyadevara et al. (2017) Antioxid Redox Signal. 27(17): 1383-1396; Ayyadevara et al. (2005) Aging Cell. 4(5): 257-271). The lifespan was assessed in C. elegans, either mock-treated or exposed to TDZD analogues. PNR-962 and BSK-179 extended the lifespan of wild-type nematodes to an identical degree, increasing the mean by roughly 25-30% (P<0.001; FIG. 8).
To obtain synchronized eggs for lifespan studies, worms were maintained for 2 generations, free of contamination and starvation. Healthy, well-fed adult worms from the 2nd generation were then lysed, and eggs placed on plates with appropriate doses of TDZD analogue PNR962, or DMSO vehicle alone (for a final concentration of 0.02% v/v DMSO). At the L4 larval stage, worms were transferred daily to fresh plates for 7 days, and thereafter on alternate days until all the worms are dead. C. elegans that moved spontaneously or responded to gentle prodding were scored as alive. For the mortality computation, worms that were lost for reasons other than natural death were censored. […]

Row | Compound | GI50 [1] [nM] | increase of mean lifespan [2]
1 | C=C1C(=O)O[C@H]2[C@H]1CC/C(COC(=O)NCc1ccc(Cn3c(=O)sn(CCCC#N)c3=O)cc1)=C\CC[C@@]1(C)O[C@@H]21 [BSK-226] | 280 to 900 | 
2 | O=c1sn(CCI)c(=O)n1Cc1ccccc1 [PNR-962] |  | 25-30%
3 | CC(=O)Oc1ccccc1C(=O)NCc1ccc(Cn2c(=O)sn(CCCl)c2=O)cc1 [BSK-179] |  | 25-30%
